“And” between values parts separate entries of the source, which are not always exact repeats. Identical values can stand only once. Toxic doses and inconclusive results are not listed. The calls were made as follows: active = survival T/C of 150% or more; inactive = T/C below 125% in these data.
Test system: BDF1 mice, B16 melanoma ip, median survival T/C
Experiment: NCI In Vivo Anticancer Drug Screen. Data for tumor model B16 Melanoma (intraperitoneal) in B6D2F1 (BDF1) mice
Settings: endpoint: median survival time, schedule: Q01DX009 (ip), higher = longer survival
Description: The antitumor activity of compounds was measured in mice bearing transplantable tumors. Survival or tumor size were measured and the results are expressed as the measurement made in the treated group (T) divided by the measurement made in the vehicle treated control group (C). The tumor model used in this assay is B16 Melanoma (intraperitoneal) in B6D2F1 (BDF1) mice

Measured: T/C

COc1cc2c(c(OC)c1OC)-c1ccc(OC)c(=O)cc1[C@@H](N)CC2
inactive: dose: 0.63 mg/kg/injection, vehicle: Klucel (hydroxypropylcellulose) (HPC) 102 % of control and 115 % of control | dose: 0.63 mg/kg/injection, vehicle: saline 111 % of control | dose: 1.25 mg/kg/injection, vehicle: Klucel (hydroxypropylcellulose) (HPC) 103 % of control | dose: 2.5 mg/kg/injection, vehicle: Klucel (hydroxypropylcellulose) (HPC) 106 % of control and 114 % of control | dose: 5.0 mg/kg/injection, vehicle: Klucel (hydroxypropylcellulose) (HPC) 121 % of control
